Measurements as given in PubChem BioAssay AID1347067 (Functional Genomics Laboratory (NCATS/FGL), 2019).
Out of some 2,500 compounds screened, about 780 (31%) were called active. The source calls these results inconclusive, neither active nor inactive. The limit is not given here; nearly all actives have AC50 up to about 26 µM.

experiment: JHH-DIPG-1 glioma cell viability, MIPE5.0 library, CellTiter-Glo luminescence, qHTS (AID 1347067); details: JHH-DIPG-1 glioma viability, CellTiter-Glo ATP luminescence;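 also: cells exposed to compound for 48 hours before readout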
Source text: Diffuse intrinsic pontine glioma (DIPG) is a rare pediatric brain tumor with a poor prognosis. This diagnosis is typically fatal as the tumor location prohibits surgical removal therefore patients are left with radiotherapy as the only approved therapeutic option. Due to the lack of chemotherapeutic options for this tumor type, we sought to screen a library of investigational and approved agents to determine efficacy in vitro with the goal of finding novel treatments for in vivo testing. The NCATS developed MIPE libraries were used to screen six patient derived DIPG cell lines, JHH-DIPG-1, SU-DIPG-IV, SU-DIPG-VI, SU-DIPG-XIII, SU-DIPG-XVII and SU-DIPG-XXV. Each compound was screened at an 11 concentrations from 47uM to 7.6nM. Top active compounds from this screen were then moved to drug combination screening in order to determine synergistic compounds that could move quickly to clinical trials.
JHH-DIPG-1, SU-DIPG-IV, SU-DIPG-VI, SU-DIPG-XIII, SU-DIPG-XVII and SU-DIPG-XXV were seeded into 1536 well white polystyrene tissue culture treated Corning plates using a MultiDrop Combi dispenser (ThermoFisher Scientific) and small cassette in 5 microL their normal growth media. […] Luminescence readings were taken using a Viewlux (PerkinElmer) with a 2 second exposure time per plate. […]

| Structure (SMILES) | AC50 |
| --- | --- |
| CN(CCCl)CCCl | inconclusive: 2.63 µM |
